Test results: article PMC10132990
These are yes or no findings as the source states them, for the method shown. Binding seen in cells or lysates may run through a third protein. Some results given as binding are weak or reduced against the parent protein; the word gives no strength. Where a sequence is shown, tags or fusion partners need not be part of it.

The chains behind the UniProt entries cited, without tags or fusion partners.
UniProt P26040: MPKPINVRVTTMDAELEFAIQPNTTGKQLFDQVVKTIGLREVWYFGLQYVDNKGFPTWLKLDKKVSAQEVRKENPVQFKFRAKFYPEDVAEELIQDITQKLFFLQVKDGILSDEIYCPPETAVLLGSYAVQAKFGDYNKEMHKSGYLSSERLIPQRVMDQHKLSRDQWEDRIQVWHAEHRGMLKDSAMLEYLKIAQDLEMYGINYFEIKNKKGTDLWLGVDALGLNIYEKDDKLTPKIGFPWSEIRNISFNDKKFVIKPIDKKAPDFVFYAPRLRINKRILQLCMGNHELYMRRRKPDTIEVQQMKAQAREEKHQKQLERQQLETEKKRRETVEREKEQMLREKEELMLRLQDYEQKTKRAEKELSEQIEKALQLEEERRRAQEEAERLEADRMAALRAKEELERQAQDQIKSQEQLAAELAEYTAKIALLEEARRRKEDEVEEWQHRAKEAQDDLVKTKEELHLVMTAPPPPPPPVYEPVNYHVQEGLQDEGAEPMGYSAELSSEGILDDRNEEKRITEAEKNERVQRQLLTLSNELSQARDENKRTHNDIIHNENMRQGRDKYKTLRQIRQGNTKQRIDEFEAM

T1: 3×HA-SAPAP3 (UniProt Q6PFD5)
T1 sequence: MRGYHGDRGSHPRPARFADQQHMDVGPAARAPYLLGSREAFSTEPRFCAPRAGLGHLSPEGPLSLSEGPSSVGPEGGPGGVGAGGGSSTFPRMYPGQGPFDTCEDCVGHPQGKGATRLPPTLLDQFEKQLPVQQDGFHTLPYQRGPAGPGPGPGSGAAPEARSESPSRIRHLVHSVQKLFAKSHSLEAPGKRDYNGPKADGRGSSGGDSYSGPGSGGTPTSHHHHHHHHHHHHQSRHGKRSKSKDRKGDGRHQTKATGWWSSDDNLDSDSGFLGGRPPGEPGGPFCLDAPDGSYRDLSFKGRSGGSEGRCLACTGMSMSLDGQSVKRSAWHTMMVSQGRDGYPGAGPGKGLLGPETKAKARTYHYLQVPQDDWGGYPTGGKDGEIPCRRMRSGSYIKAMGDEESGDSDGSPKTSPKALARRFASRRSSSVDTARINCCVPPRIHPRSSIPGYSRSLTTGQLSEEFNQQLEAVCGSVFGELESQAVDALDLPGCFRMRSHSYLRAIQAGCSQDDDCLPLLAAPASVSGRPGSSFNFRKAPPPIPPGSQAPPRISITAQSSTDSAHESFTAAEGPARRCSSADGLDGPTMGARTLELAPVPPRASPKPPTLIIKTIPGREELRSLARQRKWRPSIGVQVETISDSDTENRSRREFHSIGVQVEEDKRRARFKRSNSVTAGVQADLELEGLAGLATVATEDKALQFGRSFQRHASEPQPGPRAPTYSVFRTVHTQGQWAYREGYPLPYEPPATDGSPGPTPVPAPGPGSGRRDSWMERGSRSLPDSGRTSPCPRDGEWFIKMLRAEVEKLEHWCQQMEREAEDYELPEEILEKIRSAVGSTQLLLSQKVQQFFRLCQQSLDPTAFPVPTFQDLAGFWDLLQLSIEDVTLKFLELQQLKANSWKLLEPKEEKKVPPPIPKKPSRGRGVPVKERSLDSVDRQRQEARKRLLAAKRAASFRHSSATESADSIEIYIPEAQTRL


Key:
3×HA-SAPAP3 = biological target: T1, 3×HA-SAPAP3; assay: co-IP; recombinant proteins co-expressed by AAV in striatal astrocytes in vivo; cleared striatal lysate (25 mM HEPES pH 7.5, 150 mM NaCl, 1% NP-40) on GFP-trap beads or anti-HA tag beads overnight at 4 °C; washes with 500 mM NaCl; blots for GFP and HA
EZR–GFP = EZR–GFP (UniProt P26040); assay: as above
[1] = biological target: EZR (endogenous) (mouse (endogenous in striatum)) (UniProt P26040); assay: proximity ligation; Duolink PLA on fixed-frozen 20 μm striatal sections; rabbit anti-SAPAP3 with mouse anti-GLT1 or mouse anti-EZR; puncta counted within tdTomato+ astrocytes; WT mice, SAPAP3 KO mice and SAPAP3 KO mice injected with Astro GFP or Astro SAPAP3

| binding [1] | Molecule | also measured |
| --- | --- | --- |
|  | EZR–GFP (from UniProt P26040 1-586) | binding (3×HA-SAPAP3): binds |
|  | 3×HA-SAPAP3 (protein, UniProt Q6PFD5 1-977) MRGYHGDRGSHPRPARFADQQHMDVGPAARAPYLLGSREAFSTEPRFCAPRAGLGHLSPEGPLSLSEGPSSVGPEGGPGGVGAGGGSSTFPRMYPGQGPFDTCEDCVGHPQGKGATRLPPTLLDQFEKQLPVQQDGFHTLPYQRGPAGPGPGPGSGAAPEARSESPSRIRHLVHSVQKLFAKSHSLEAPGKRDYNGPKADGRGSSGGDSYSGPGSGGTPTSHHHHHHHHHHHHQSRHGKRSKSKDRKGDGRHQTKATGWWSSDDNLDSDSGFLGGRPPGEPGGPFCLDAPDGSYRDLSFKGRSGGSEGRCLACTGMSMSLDGQSVKRSAWHTMMVSQGRDGYPGAGPGKGLLGPETKAKARTYHYLQVPQDDWGGYPTGGKDGEIPCRRMRSGSYIKAMGDEESGDSDGSPKTSPKALARRFASRRSSSVDTARINCCVPPRIHPRSSIPGYSRSLTTGQLSEEFNQQLEAVCGSVFGELESQAVDALDLPGCFRMRSHSYLRAIQAGCSQDDDCLPLLAAPASVSGRPGSSFNFRKAPPPIPPGSQAPPRISITAQSSTDSAHESFTAAEGPARRCSSADGLDGPTMGARTLELAPVPPRASPKPPTLIIKTIPGREELRSLARQRKWRPSIGVQVETISDSDTENRSRREFHSIGVQVEEDKRRARFKRSNSVTAGVQADLELEGLAGLATVATEDKALQFGRSFQRHASEPQPGPRAPTYSVFRTVHTQGQWAYREGYPLPYEPPATDGSPGPTPVPAPGPGSGRRDSWMERGSRSLPDSGRTSPCPRDGEWFIKMLRAEVEKLEHWCQQMEREAEDYELPEEILEKIRSAVGSTQLLLSQKVQQFFRLCQQSLDPTAFPVPTFQDLAGFWDLLQLSIEDVTLKFLELQQLKANSWKLLEPKEEKKVPPPIPKKPSRGRGVPVKERSLDSVDRQRQEARKRLLAAKRAASFRHSSATESADSIEIYIPEAQTRL | binding (EZR–GFP): binds |
| binds | SAPAP3 (endogenous) (protein, UniProt Q6PFD5 1-977) MRGYHGDRGSHPRPARFADQQHMDVGPAARAPYLLGSREAFSTEPRFCAPRAGLGHLSPEGPLSLSEGPSSVGPEGGPGGVGAGGGSSTFPRMYPGQGPFDTCEDCVGHPQGKGATRLPPTLLDQFEKQLPVQQDGFHTLPYQRGPAGPGPGPGSGAAPEARSESPSRIRHLVHSVQKLFAKSHSLEAPGKRDYNGPKADGRGSSGGDSYSGPGSGGTPTSHHHHHHHHHHHHQSRHGKRSKSKDRKGDGRHQTKATGWWSSDDNLDSDSGFLGGRPPGEPGGPFCLDAPDGSYRDLSFKGRSGGSEGRCLACTGMSMSLDGQSVKRSAWHTMMVSQGRDGYPGAGPGKGLLGPETKAKARTYHYLQVPQDDWGGYPTGGKDGEIPCRRMRSGSYIKAMGDEESGDSDGSPKTSPKALARRFASRRSSSVDTARINCCVPPRIHPRSSIPGYSRSLTTGQLSEEFNQQLEAVCGSVFGELESQAVDALDLPGCFRMRSHSYLRAIQAGCSQDDDCLPLLAAPASVSGRPGSSFNFRKAPPPIPPGSQAPPRISITAQSSTDSAHESFTAAEGPARRCSSADGLDGPTMGARTLELAPVPPRASPKPPTLIIKTIPGREELRSLARQRKWRPSIGVQVETISDSDTENRSRREFHSIGVQVEEDKRRARFKRSNSVTAGVQADLELEGLAGLATVATEDKALQFGRSFQRHASEPQPGPRAPTYSVFRTVHTQGQWAYREGYPLPYEPPATDGSPGPTPVPAPGPGSGRRDSWMERGSRSLPDSGRTSPCPRDGEWFIKMLRAEVEKLEHWCQQMEREAEDYELPEEILEKIRSAVGSTQLLLSQKVQQFFRLCQQSLDPTAFPVPTFQDLAGFWDLLQLSIEDVTLKFLELQQLKANSWKLLEPKEEKKVPPPIPKKPSRGRGVPVKERSLDSVDRQRQEARKRLLAAKRAASFRHSSATESADSIEIYIPEAQTRL |  |
| binds | Astro GFP–SAPAP3 (protein, UniProt Q6PFD5 1-977) MRGYHGDRGSHPRPARFADQQHMDVGPAARAPYLLGSREAFSTEPRFCAPRAGLGHLSPEGPLSLSEGPSSVGPEGGPGGVGAGGGSSTFPRMYPGQGPFDTCEDCVGHPQGKGATRLPPTLLDQFEKQLPVQQDGFHTLPYQRGPAGPGPGPGSGAAPEARSESPSRIRHLVHSVQKLFAKSHSLEAPGKRDYNGPKADGRGSSGGDSYSGPGSGGTPTSHHHHHHHHHHHHQSRHGKRSKSKDRKGDGRHQTKATGWWSSDDNLDSDSGFLGGRPPGEPGGPFCLDAPDGSYRDLSFKGRSGGSEGRCLACTGMSMSLDGQSVKRSAWHTMMVSQGRDGYPGAGPGKGLLGPETKAKARTYHYLQVPQDDWGGYPTGGKDGEIPCRRMRSGSYIKAMGDEESGDSDGSPKTSPKALARRFASRRSSSVDTARINCCVPPRIHPRSSIPGYSRSLTTGQLSEEFNQQLEAVCGSVFGELESQAVDALDLPGCFRMRSHSYLRAIQAGCSQDDDCLPLLAAPASVSGRPGSSFNFRKAPPPIPPGSQAPPRISITAQSSTDSAHESFTAAEGPARRCSSADGLDGPTMGARTLELAPVPPRASPKPPTLIIKTIPGREELRSLARQRKWRPSIGVQVETISDSDTENRSRREFHSIGVQVEEDKRRARFKRSNSVTAGVQADLELEGLAGLATVATEDKALQFGRSFQRHASEPQPGPRAPTYSVFRTVHTQGQWAYREGYPLPYEPPATDGSPGPTPVPAPGPGSGRRDSWMERGSRSLPDSGRTSPCPRDGEWFIKMLRAEVEKLEHWCQQMEREAEDYELPEEILEKIRSAVGSTQLLLSQKVQQFFRLCQQSLDPTAFPVPTFQDLAGFWDLLQLSIEDVTLKFLELQQLKANSWKLLEPKEEKKVPPPIPKKPSRGRGVPVKERSLDSVDRQRQEARKRLLAAKRAASFRHSSATESADSIEIYIPEAQTRL |  |
